The target of assay [1] is human His-FBG citrullinated with PAD2 (human) (UniProt P24821). The experiment in a line: SPR BIAcore 3000, 25 C, IgG4 captured on anti-human IgG.
The target of assay [2] is human His-FBG citrullinated with PAD4 (human) (UniProt P24821). The description is as above.
The target of assay [3] is T1, mouse TNC rCd4-His-FBG (rat; mouse) (UniProt P05540+Q80YX1).
T1 sequence (chain (part 1 of 2), looked up): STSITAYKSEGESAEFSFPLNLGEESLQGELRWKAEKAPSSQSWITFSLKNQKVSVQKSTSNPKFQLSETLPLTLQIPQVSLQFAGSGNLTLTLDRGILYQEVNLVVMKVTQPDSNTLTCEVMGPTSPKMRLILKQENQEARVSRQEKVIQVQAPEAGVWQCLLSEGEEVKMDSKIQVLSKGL
T1 sequence (chain (part 2 of 2), looked up): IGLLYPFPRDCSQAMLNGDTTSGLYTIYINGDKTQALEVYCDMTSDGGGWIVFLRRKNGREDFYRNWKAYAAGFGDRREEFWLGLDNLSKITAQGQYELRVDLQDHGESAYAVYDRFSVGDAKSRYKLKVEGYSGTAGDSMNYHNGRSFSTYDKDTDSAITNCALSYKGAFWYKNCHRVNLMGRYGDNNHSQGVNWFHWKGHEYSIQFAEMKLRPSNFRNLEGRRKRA
The experiment in a line: SPR BIAcore T100, 25 C. For orientation: In SPR one partner is held on a chip, and binding of the other changes the refractive index at the surface.

The target of assay [4] is T2, human TNC rCd4-His-FBG (rat; human) (UniProt P05540+P24821).
T2 sequence (chain (part 1 of 2), looked up): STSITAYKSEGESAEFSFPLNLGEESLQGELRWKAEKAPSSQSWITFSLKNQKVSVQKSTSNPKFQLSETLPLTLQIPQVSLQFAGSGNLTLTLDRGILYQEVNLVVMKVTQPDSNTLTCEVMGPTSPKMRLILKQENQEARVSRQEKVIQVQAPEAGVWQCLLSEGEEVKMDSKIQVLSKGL
T2 sequence (chain (part 2 of 2), looked up): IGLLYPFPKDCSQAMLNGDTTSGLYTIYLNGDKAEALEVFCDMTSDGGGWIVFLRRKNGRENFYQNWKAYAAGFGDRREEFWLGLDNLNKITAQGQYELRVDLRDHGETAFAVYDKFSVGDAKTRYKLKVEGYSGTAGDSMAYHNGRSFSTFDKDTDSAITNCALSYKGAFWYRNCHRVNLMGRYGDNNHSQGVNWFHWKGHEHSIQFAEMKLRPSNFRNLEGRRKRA
In words: HTRF screen of scFv supernatants. For orientation: In TR-FRET formats the signal depends on donor and acceptor labels being close together.

The target of assay [5] is T1, mouse TNC rCd4-His-FBG (rat; mouse). The experiment in a line: capture ELISA screen of scFv supernatants.
Assay [6] shares this target. The experiment in a line: SPR, 37 C, purified IgG4 captured on anti-human Fc.
The target of assay [7] is endogenous human tenascin-C in RA synovium (human) (UniProt P24821). In words: immunohistochemistry on acetone/methanol-fixed cryosections of human RA synovium.
The target of assay [8] is T2, human TNC rCd4-His-FBG (rat; human). The experiment in a line: SPR BIAcore T200, 37 C.
The target in assay [9] is T3, human TNR rCd4-His-FBG (rat; human) (UniProt P05540+Q92752).
T3 sequence (chain (part 1 of 2), looked up): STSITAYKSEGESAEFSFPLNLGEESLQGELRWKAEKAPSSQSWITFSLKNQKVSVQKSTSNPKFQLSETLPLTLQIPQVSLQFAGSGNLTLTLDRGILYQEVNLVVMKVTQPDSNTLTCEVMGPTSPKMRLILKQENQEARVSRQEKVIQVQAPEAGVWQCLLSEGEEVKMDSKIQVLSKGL
T3 sequence (chain (part 2 of 2), looked up): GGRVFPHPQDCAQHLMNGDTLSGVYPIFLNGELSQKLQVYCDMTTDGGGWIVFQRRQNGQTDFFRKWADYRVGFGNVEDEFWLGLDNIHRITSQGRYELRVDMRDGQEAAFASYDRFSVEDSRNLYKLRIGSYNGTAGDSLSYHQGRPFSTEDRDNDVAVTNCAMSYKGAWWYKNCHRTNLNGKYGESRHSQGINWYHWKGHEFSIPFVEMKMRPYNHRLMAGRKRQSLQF
In words: SPR BIAcore T200, 37 C.

Assay [10] concerns the target T1, mouse TNC rCd4-His-FBG (rat; mouse). In words: SPR BIAcore T200, 37 C.

These are yes or no findings as the source states them, for the method shown. Some results given as binding are weak or reduced against the parent protein; the word gives no strength. For some of these results: Sequences can lack the tags named with a protein.

B1: B12 human IgG4 (S241P) (antibody, V domains shown)
VH: QVQLVESGGGLVQPGRSLRLSCAASGFTFDDYAMHWVRQAPGKGLEWVSGISGSGGSTYYADSVKGRFTISRDNAKNSLYLQMNSLRAEDTALYYCAKDISAVPDTFDIWGQGTMVTVSS
VL: DIQMTQSPASLPTPVGDRVTITCRASQYIQGFLNWYQQKPGKAPKLLIYDASNLETGVPSRFSGSGSGTDFTLTISSLQPEDFATYYCQQSYSTPQTFGQGTKVDIKR
Consider B1, for which the binding result in assay [1] and in [2] was “binds” throughout.

B2: B12 Fab (Fab, V domains shown)
VH: QVQLVESGGGLVQPGRSLRLSCAASGFTFDDYAMHWVRQAPGKGLEWVSGISGSGGSTYYADSVKGRFTISRDNAKNSLYLQMNSLRAEDTALYYCAKDISAVPDTFDIWGQGTMVTVSS
VL: DIQMTQSPASLPTPVGDRVTITCRASQYIQGFLNWYQQKPGKAPKLLIYDASNLETGVPSRFSGSGSGTDFTLTISSLQPEDFATYYCQQSYSTPQTFGQGTKVDIKR
Consider B2, for which, in assay [3], the binding result is given as “binds”.

B3: 165_13_D4 scFv (scFv, V domains shown)
VH: QVQLVESGGGLVQPGRSLRLSCAASGFTFDDYAMHWVRQAPGKGLEWVSGISGSGGSTYYADSVKGRFTISRDNAKNSLYLQMNSLRAEDTALYYCAKGTVGEGDTFDIWGQGTMVTVSS
VL: DIQMTQSPASLPTPVGDRVTITCRASQYIQGFLNWYQQKPGKAPKLLIYDASNLETGVPSRFSGSGSGTDFTLTISSLQPEDFATYYCQQSYSTPQTFGQGTKVDIKR
Regarding B3, the binding entry in assay [4] and in assay [5] was “binds” each time.

B4: 165_13_D1 human IgG4 (S241P) (antibody, V domains shown)
VH: QVQLVESGGGLVQPGRSLRLSCAASGFTFDDYAMHWVRQAPGKGLEWVSGISGSGGSTYYADSVKGRFTISRDNAKNSLYLQMNSLRAEDTALYYCAKGTRGEGDTFDIWGQGTMVTVSS
VL: DIQMTQSPASLPTPVGDRVTITCRASQYIQGFLNWYQQKPGKAPKLLIYDASNLETGVPSRFSGSGSGTDFTLTISSLQPEDFATYYCQQSYSTPQTFGQGTKVDIKR
Turning to B4, in assay [6], the binding result is “binds”.

B5: B12 mouse IgG2a (antibody, V domains shown)
VH: QVQLVESGGGLVQPGRSLRLSCAASGFTFDDYAMHWVRQAPGKGLEWVSGISGSGGSTYYADSVKGRFTISRDNAKNSLYLQMNSLRAEDTALYYCAKDISAVPDTFDIWGQGTMVTVSS
VL: DIQMTQSPASLPTPVGDRVTITCRASQYIQGFLNWYQQKPGKAPKLLIYDASNLETGVPSRFSGSGSGTDFTLTISSLQPEDFATYYCQQSYSTPQTFGQGTKVDIKR
As to B5, in [7], the binding entry is “binds”.

B6: 165_13_B1 scFv (scFv, V domains shown)
VH: QVQLVESGGGLVQPGRSLRLSCAASGFTFDDYAMHWVRQAPGKGLEWVSGISGSGGSTYYADSVKGRFTISRDNAKNSLYLQMNSLRAEDTALYYCAKVMSSMEDAFDIWGQGTMVTVSS
VL: DIQMTQSPASLPTPVGDRVTITCRASQYIQGFLNWYQQKPGKAPKLLIYDASNLETGVPSRFSGSGSGTDFTLTISSLQPEDFATYYCQQSYSTPQTFGQGTKVDIKR
As to B6, the binding entry in assay [4] and in assay [5] was “binds” throughout.

B7: 180_11_F5 scFv (scFv, V domains shown)
VH: QVQLVESGGGLVQPGRSLRLSCAASGFTFDDYAMHWVRQAPGKGLEWVSGISGSGGSTYYADSVKGRFTISRDNAKNSLYLQMNSLRAEDTALYYCAKVMRTGLDTFDIWGQGTMVTVSS
VL: DIQMTQSPASLPTPVGDRVTITCRASQYIQGFLNWYQQKPGKAPKLLIYDASNLETGVPSRFSGSGSGTDFTLTISSLQPEDFATYYCQQSYSTPQTFGQGTKVDIKR
As for B7, the binding result in assay [4] and in assay [5] was “binds” each time.

B8: 165_13_C3 scFv (scFv, V domains shown)
VH: QVQLVESGGGLVQPGRSLRLSCAASGFTFDDYAMHWVRQAPGKGLEWVSGISGSGGSTYYADSVKGRFTISRDNAKNSLYLQMNSLRAEDTALYYCAKSYQSDEDAFDIWGQGTMVTVSS
VL: DIQMTQSPASLPTPVGDRVTITCRASQYIQGFLNWYQQKPGKAPKLLIYDASNLETGVPSRFSGSGSGTDFTLTISSLQPEDFATYYCQQSYSTPQTFGQGTKVDIKR
As for B8, the binding result in assay [4] and in assay [5] was “binds” throughout.

B9: 165_13_B1 human IgG4 (S241P) (antibody, V domains shown)
VH: QVQLVESGGGLVQPGRSLRLSCAASGFTFDDYAMHWVRQAPGKGLEWVSGISGSGGSTYYADSVKGRFTISRDNAKNSLYLQMNSLRAEDTALYYCAKVMSSMEDAFDIWGQGTMVTVSS
VL: DIQMTQSPASLPTPVGDRVTITCRASQYIQGFLNWYQQKPGKAPKLLIYDASNLETGVPSRFSGSGSGTDFTLTISSLQPEDFATYYCQQSYSTPQTFGQGTKVDIKR
As for B9, the binding entry in assay [6] was “binds”.

B10: 165_13_B3 scFv (scFv, V domains shown)
VH: QVQLVESGGGLVQPGRSLRLSCAASGFTFDDYAMHWVRQAPGKGLEWVSGISGSGGSTYYADSVKGRFTISRDNAKNSLYLQMNSLRAEDTALYYCAKALARGHDTFDIWGQGTMVTVSS
VL: DIQMTQSPASLPTPVGDRVTITCRASQYIQGFLNWYQQKPGKAPKLLIYDASNLETGVPSRFSGSGSGTDFTLTISSLQPEDFATYYCQQSYSTPQTFGQGTKVDIKR
Turning to B10, the binding entry in [4] and in [5] was “binds” throughout.

B11: 165_13_A4 scFv (scFv, V domains shown)
VH: QVQLVESGGGLVQPGRSLRLSCAASGFTFDDYAMHWVRQAPGKGLEWVSGISGSGGSTYYADSVKGRFTISRDNAKNSLYLQMNSLRAEDTALYYCAKDKYPVLDTFDIWGQGTMVTVSS
VL: DIQMTQSPASLPTPVGDRVTITCRASQYIQGFLNWYQQKPGKAPKLLIYDASNLETGVPSRFSGSGSGTDFTLTISSLQPEDFATYYCQQSYSTPQTFGQGTKVDIKR
As to B11, the binding result in assay [4] and in [5] was “binds” throughout.

B12: 165_13_B6 scFv (scFv, V domains shown)
VH: QVQLVESGGGLVQPGRSLRLSCAASGFTFDDYAMHWVRQAPGKGLEWVSGISGSGGSTYYADSVKGRFTISRDNAKNSLYLQMNSLRAEDTALYYCAKGQKGEGDTFDIWGQGTMVTVSS
VL: DIQMTQSPASLPTPVGDRVTITCRASQYIQGFLNWYQQKPGKAPKLLIYDASNLETGVPSRFSGSGSGTDFTLTISSLQPEDFATYYCQQSYSTPQTFGQGTKVDIKR
B12: the binding result in assay [4] and in [5] was “binds” in each case.

B13: 165_13_D1 scFv (scFv, V domains shown)
VH: QVQLVESGGGLVQPGRSLRLSCAASGFTFDDYAMHWVRQAPGKGLEWVSGISGSGGSTYYADSVKGRFTISRDNAKNSLYLQMNSLRAEDTALYYCAKGTRGEGDTFDIWGQGTMVTVSS
VL: DIQMTQSPASLPTPVGDRVTITCRASQYIQGFLNWYQQKPGKAPKLLIYDASNLETGVPSRFSGSGSGTDFTLTISSLQPEDFATYYCQQSYSTPQTFGQGTKVDIKR
Consider B13, for which the binding result in assay [4] and in assay [5] was “binds” throughout.

B14: IgG4 165_13_C3* (antibody, V domains shown)
VH: QVQLVESGGGLVQPGRSLRLSCAASGFTFDDYAMHWVRQAPGKGLEWVSGISGSGGSTYYADSVKGRFTISRDNAKNSLYLQMNSLRAEDTALYYCAKSYQSDEDAFDIWGQGTMVTVSS
VL: DIQMTQSPSSLSASVGDRVTITCRASQYIQGFLNWYQQKPGKAPKLLIYDASNLETGVPSRFSGSGSGTDFTLTISSLQPEDFATYYCQQSYSTPQTFGQGTKVDIKR
Take B14: the binding result in [8], in assay [9] and in [10] was “binds” throughout.

(Values after patent US20200223910A1.)
